Experimental data from patent US20110059079A1 (XOMA TECHNOLOGY, published 2011).
Results are given in words; binding and its absence hold for the method and conditions named. Some entries that bind do so weakly or less than the wild type.

Assays:
[1] = target: BoNT/A light-chain heavy-chain N-terminus (LCHN) domain (UniProt P0DPI0); test: toxin domain binding ELISA of the mixture after 24 months at 2-8 C
[2] = target: BoNT/A light-chain heavy-chain N-terminus (LCHN) domain (UniProt P0DPI0); test: toxin domain ELISA of the 1:1:1 co-formulated mixture (FIG. 15C legend)
[3] = target: BoNT/A light-chain heavy-chain N-terminus (LCHN) domain (UniProt P0DPI0); test: ELISA, toxin domain coated on plate, anti-human IgG Fc-HRP detection
[4] = target: BoNT/A heavy-chain C-terminus (HCC) domain (UniProt P0DPI0); test: toxin domain ELISA of the 1:1:1 co-formulated mixture (FIG. 15A legend)
[5] = target: BoNT/A heavy-chain C-terminus (HCC) domain (UniProt P0DPI0); test: toxin domain binding ELISA of the mixture after 24 months at 2-8 C
[6] = target: BoNT/A heavy-chain C-terminus (HCC) domain (UniProt P0DPI0); test: ELISA, toxin domain coated on plate, anti-human IgG Fc-HRP detection

Measured: binding

B1: ABT03 (antibody, V domains shown)
VH: QVQLQQSGGGLVQPGGSLRLSCAASGFTFSNYAMTWVRQAPGKGLEWVSSISVGGSDTYYADSVKGRFTVSRDNSKNTLLLQMNSLRAEDTAVYYCAKVRTKYCSSLSCFAGFDSWGQGTRVTVSS
VL: DVVMTQSPSSLSASVGDRVTITCRASQSISSYLHWYQQKPGKAPTLLISDASSSQSGVPSRFSGSRFGTDFTLTISSLQPEDFATYYCQQSYSTRALTFGGGTKVEIK
binds: [1] | [2] | [3]

B2: ABT02 (antibody, V domains shown)
VH: QVQLVQSGGGVVHPGRSLKLSCAGSGFTFSDYDMHWVRQAPGKGLEWVAVMWFDGTEKYSAESVKGRFTISRDNSKNTLFLQMNSLRADDTAVYYCAREPDWLLWGDRGALDVWGQGTTVTVSS
VL: DIVMTQSPSTLSASVGDRVTITCWASQSISSRLAWYQQKPGKAPKLLMYEATSLGSGVPSRFSGSGSGTEFTLTISSLQPDDFAAYYCQHYDTYPYTFGQGTKLEIK
binds: [4] | [5] | [6]
